No constants are given. Whether binding was seen depends on the method and setting.
What was measured:
Test in all cases: holdup assay; biotinylated PBM peptide on streptavidin resin, biotin resin as reference; tag-PDZ at 4 uM in crude E. coli lysate, 15 min, filtrate read by capillary electrophoresis; singlicate; BI converted into KD with the mean peptide concentration back-calculated from FP (34, 28, 25, 17 uM); LogKD is -log10 of KD in M, overall uncertainty ± 0.12; cells at the column's lower value are pairs without detected binding; only the target purified
PTEN_13 (human) = PTEN_13 (human) (UniProt P60484)
PTEN_Ac (human) = PTEN_Ac (human) (UniProt P60484)
PTEN_KR (human) = PTEN_KR (human) (UniProt P60484)
PTEN_11 (human) = PTEN_11 (human) (UniProt P60484)

The chains behind the UniProt entries cited, without tags or fusion partners. Where a name states a change or a piece, a line headed by the entry shows the natural chain unless it says otherwise.
UniProt P60484: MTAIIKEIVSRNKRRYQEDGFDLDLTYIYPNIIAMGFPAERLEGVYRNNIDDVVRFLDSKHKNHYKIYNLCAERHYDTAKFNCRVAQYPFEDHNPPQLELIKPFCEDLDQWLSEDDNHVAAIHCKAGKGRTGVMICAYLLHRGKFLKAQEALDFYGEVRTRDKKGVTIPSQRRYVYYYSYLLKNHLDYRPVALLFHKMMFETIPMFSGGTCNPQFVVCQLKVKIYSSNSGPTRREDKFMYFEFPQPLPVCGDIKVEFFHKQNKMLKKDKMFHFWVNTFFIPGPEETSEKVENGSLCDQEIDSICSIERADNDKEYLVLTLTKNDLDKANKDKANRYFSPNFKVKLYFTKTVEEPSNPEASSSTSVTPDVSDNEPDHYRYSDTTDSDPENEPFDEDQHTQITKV

Binder | binding (PTEN_13 (human)) | binding (PTEN_Ac (human)) | binding (PTEN_KR (human)) | binding (PTEN_11 (human))
PDZRN3-2 (domain or fragment, UniProt Q9UPQ7 419-503) EVDLYRMNSQDKLGLTVCYRTDDEDDIGIYISEIDPNSIAAKDGRIREGDRIIQINGIEVQNREEAVALLTSEENKNFSLLIARP | no binding (tested: lower value) | no binding (tested: lower value) | – | –
NHERF3-4 (domain or fragment, UniProt Q5T2W1 378-458) LCRLAKGENGYGFHLNAIRGLPGSFIKEVQKGGPADLAGLEDEDVIIEVNGVNVLDEPYEKVVDRIQSSGKNVTLLVCGKK | no binding (tested: lower value) | no binding (tested: lower value) | – | no binding (tested: lower value)
INADL-7 (domain or fragment, UniProt Q8NI35 1239-1322) IIELEKDKNGLGLSLAGNKDRSRMSIFVVGINPEGPAAADGRMRIGDELLEINNQILYGRSHQNASAIIKTAPSKVKLVFIRNE | no binding (tested: lower value) | – | – | –
PDZRN3-1 (domain or fragment, UniProt Q9UPQ7 249-339) TLVLHRDSGSLGFNIIGGRPSVDNHDGSSSEGIFVSKIVDSGPAAKEGGLQIHDRIIEVNGRDLSRATHDQAVEAFKTAKEPIVVQVLRRT | no binding (tested: lower value) | no binding (tested: lower value) | – | –
APBA2-1 (domain or fragment, UniProt Q99767 568-654) ELQLEKHKGEILGVVVVESGWGSILPTVILANMMNGGPAARSGKLSIGDQIMSINGTSLVGLPLATCQGIIKGLKNQTQVKLNIVSC | no binding (tested: lower value) | no binding (tested: lower value) | – | –
APBA1-1 (domain or fragment, UniProt Q02410 656-742) DVFIEKQKGEILGVVIVESGWGSILPTVIIANMMHGGPAEKSGKLNIGDQIMSINGTSLVGLPLSTCQSIIKGLKNQSRVKLNIVRC | no binding (tested: lower value) | no binding (tested: lower value) | – | –
DLG3-2 (domain or fragment, UniProt Q92796 226-311) EVNLLKGPKGLGFSIAGGIGNQHIPGDNSIYITKIIEGGAAQKDGRLQIGDRLLAVNNTNLQDVRHEEAVASLKNTSDMVYLKVAK | no binding (tested: lower value) | – | – | –
LNX1-3 (domain or fragment, UniProt Q8TBB1 507-593) VVNIQKDPGESLGMTVAGGASHREWDLPIYVISVEPGGVISRDGRIKTGDILLNVDGVELTEVSRSEAVALLKRTSSSIVLKALEVK | no binding (tested: lower value) | no binding (tested: lower value) | – | no binding (tested: lower value)
LNX1-1 (domain or fragment, UniProt Q8TBB1 274-359) SIKINRVDPSESLSIRLVGGSETPLVHIIIQHIYRDGVIARDGRLLPGDIILKVNGMDISNVPHNYAVRLLRQPCQVLWLTVMREQ | no binding (tested: lower value) | – | – | –
NHERF3-3 (domain or fragment, UniProt Q5T2W1 243-323) IVEMKKGSNGYGFYLRAGSEQKGQIIKDIDSGSPAEEAGLKNNDLVVAVNGESVETLDHDSVVEMIRKGGDQTSLLVVDKE | no binding (tested: lower value) | no binding (tested: lower value) | – | –
PDZD2-6 (domain or fragment, UniProt O15018 2750-2835) CVEVLKTSAGLGLSLDGGKSSVTGDGPLVIKRVYKGGAAEQAGIIEAGDEILAINGKPLVGLMHFDAWNIMKSVPEGPVQLLIRKH | no binding (tested: lower value) | no binding (tested: lower value) | no binding (tested: lower value) | –
SDCBP2-2 (domain or fragment, UniProt Q9H190 192-267) TVTMHKDSMGHVGFVIKKGKIVSLVKGSSAARNGLLTNHYVCEVDGQNVIGLKDKKIMEILATAGNVVTLTIIPSV | no binding (tested: lower value) | no binding (tested: lower value) | – | –
SDCBP2-1 (domain or fragment, UniProt Q9H190 108-187) EIHLCKDERGKTGLRLRKVDQGLFVQLVQANTPASLVGLRFGDQLLQIDGRDCAGWSSHKAHQVVKKASGDKIVVVVRDR | no binding (tested: lower value) | – | – | –
PDZD2-2 (domain or fragment, UniProt O15018 334-419) KMELLKESDGLGIQVSGGRGSKRSPHAIVVTQVKEGGAAHRDGRLSLGDELLVINGHLLVGLSHEEAVAILRSATGMVQLVVASKE | no binding (tested: lower value) | – | – | –
DFNB31-1 (domain or fragment, UniProt Q9P202 140-223) LVSLRRAKAHEGLGFSIRGGSEHGVGIYVSLVEPGSLAEKEGLRVGDQILRVNDKSLARVTHAEAVKALKGSKKLVLSVYSAGR | – | no binding (tested: lower value) | – | –

Other lines, results leading:

binding (PTEN_13 (human)) | binding (PTEN_Ac (human)) | binding (PTEN_KR (human)) | binding (PTEN_11 (human)) | Binder
no binding (tested: lower value) | no binding (tested: lower value) | no binding (tested: lower value) | – | USH1C-2 (domain or fragment, UniProt Q9Y6N9 211-293) KVFISLVGSRGLGCSISSGPIQKPGIFISHVKPGSLSAEVGLEIGDQIVEVNGVDFSNLDHKEAVNVLKSSRSLTISIVAAAG
no binding (tested: lower value) | – | no binding (tested: lower value) | – | TJP2-1 (domain or fragment, UniProt Q9UDY2 33-120) TVTLQKDSKRGFGIAVSGGRDNPHFENGETSIVISDVLPGGPADGLLQENDRVVMVNGTPMEDVLHSFAVQQLRKSGKVAAIVVKRPR
no binding (tested: lower value) | no binding (tested: lower value) | – | – | TJP3-3 (domain or fragment, UniProt O95049 380-446) DTRVVRFLKGKSIGLRLAGGNDVGIFVSGVQAGSPADGQGIQEGDQILQVNDVPFQNLTREEAVQFL
no binding (tested: lower value) | no binding (tested: lower value) | no binding (tested: lower value) | – | SDCBP-2 (domain or fragment, UniProt O00560 198-273) TITMHKDSTGHVGFIFKNGKITSIVKDSSAARNGLLTEHNICEINGQNVIGLKDSQIADILSTSGTVVTITIMPAF
– | no binding (tested: lower value) | no binding (tested: lower value) | – | TJP2-2 (domain or fragment, UniProt Q9UDY2 307-385) GVLLMKSRANEEYGLRLGSQIFVKEMTRTGLATKDGNLHEGDIILKINGTVTENMSLTDARKLIEKSRGKLQLVVLRDS
no binding (tested: lower value) | no binding (tested: lower value) | – | no binding (tested: lower value) | TJP3-1 (domain or fragment, UniProt O95049 11-93) TATLSKDPRRGFGIAISGGRDRPGGSMVVSDVVPGGPAEGRLQTGDHIVMVNGVSMENATSAFAIQILKTCTKMANITVKRPR
no binding (tested: lower value) | – | no binding (tested: lower value) | – | USH1C-3 (domain or fragment, UniProt Q9Y6N9 452-537) DVRLLRIKKEGSLDLALEGGVDSPIGKVVVSAVYERGAAERHGGIVKGDEIMAINGKIVTDYTLAEAEAALQKAWNQGGDWIDLVV
no binding (tested: lower value) | no binding (tested: lower value) | – | no binding (tested: lower value) | TJP3-2 (domain or fragment, UniProt O95049 195-272) SVLVKRRDSEEFGVKLGSQIFIKHITDSGLAARHRGLQEGDLILQINGVSSQNLSLNDTRRLIEKSEGKLSLLVLRDR
